Data from publication PMC3274541.
Where a chain is given by its changes, count along the chain named. Names may count otherwise. These are yes or no findings as the source states them, for the method shown. In cells and extracts the contact can be indirect. Some binding calls cover weakened binding; strength is not graded here. Sequences can lack the tags named with a protein.

Protein sequences, listed by entry. Tags and fused reporters are not part of them. Lines headed by an entry give the natural chain unless they say otherwise; changes in a name come on top. Chains listed by the source or under a name are the forms on record and can include a tag or linker.
UniProt O15205: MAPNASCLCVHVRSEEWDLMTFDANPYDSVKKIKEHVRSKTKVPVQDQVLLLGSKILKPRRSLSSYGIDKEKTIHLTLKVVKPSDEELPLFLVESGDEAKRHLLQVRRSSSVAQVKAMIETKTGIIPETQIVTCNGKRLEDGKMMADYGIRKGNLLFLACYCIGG
NUB1-FLAG (NEDD8 ultimate buster-1) (Q9Y5A7, form named): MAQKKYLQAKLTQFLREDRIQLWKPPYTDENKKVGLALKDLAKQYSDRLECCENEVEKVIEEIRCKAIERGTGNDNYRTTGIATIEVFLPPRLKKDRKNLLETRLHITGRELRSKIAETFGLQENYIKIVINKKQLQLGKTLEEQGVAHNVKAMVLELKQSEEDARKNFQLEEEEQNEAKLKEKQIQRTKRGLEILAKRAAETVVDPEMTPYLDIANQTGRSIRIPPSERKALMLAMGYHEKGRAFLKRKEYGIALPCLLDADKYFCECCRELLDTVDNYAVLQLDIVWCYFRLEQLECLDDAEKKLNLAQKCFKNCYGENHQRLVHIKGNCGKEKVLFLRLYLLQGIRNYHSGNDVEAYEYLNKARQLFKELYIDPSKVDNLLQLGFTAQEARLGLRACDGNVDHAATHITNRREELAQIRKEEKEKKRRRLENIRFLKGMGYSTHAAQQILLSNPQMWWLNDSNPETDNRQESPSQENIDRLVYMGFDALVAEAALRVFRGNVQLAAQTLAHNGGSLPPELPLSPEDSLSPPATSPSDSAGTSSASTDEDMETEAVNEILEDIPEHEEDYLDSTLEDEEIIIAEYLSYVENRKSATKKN

What was measured:
HA-FAT10 = HA-FAT10 (UniProt O15205); assay: co-IP; SK-N-SH cells co-transfected; lysed in DM buffer (1% n-dodecyl-β-D-maltoside, 10 mM EDTA, protease inhibitors in PBS); 2 µl antibody 2 h at 4°C, Protein G Sepharose overnight at 4°C, 5 washes; western blot; with or without 50 µM MG132 for 4 h
[1] = biological target: NUB1-FLAG (NEDD8 ultimate buster-1) (UniProt Q9Y5A7); assay: as above
[2] = biological target: T1, Myc-AIPL1 (aryl hydrocarbon receptor interacting protein-like 1), wild type (UniProt Q9NZN9); assay: as above
T1 sequence: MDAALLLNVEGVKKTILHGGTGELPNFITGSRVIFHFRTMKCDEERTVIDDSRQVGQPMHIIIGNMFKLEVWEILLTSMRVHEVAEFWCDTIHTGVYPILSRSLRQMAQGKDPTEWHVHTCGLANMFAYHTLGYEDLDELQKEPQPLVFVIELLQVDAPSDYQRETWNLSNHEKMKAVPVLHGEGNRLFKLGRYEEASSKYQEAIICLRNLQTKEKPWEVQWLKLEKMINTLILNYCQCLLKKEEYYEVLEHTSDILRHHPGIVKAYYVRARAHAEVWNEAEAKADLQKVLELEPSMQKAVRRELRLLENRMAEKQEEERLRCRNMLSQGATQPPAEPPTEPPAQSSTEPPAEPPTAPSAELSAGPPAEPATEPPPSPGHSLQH

[3] = biological target: T1, Myc-AIPL1 (aryl hydrocarbon receptor interacting protein-like 1), wild type; assay: co-IP; as the other co-IPs, but SK-N-SH cells also co-transfected with HA-FAT10 as a third protein; Myc-AIPL1 (wild type or C239R) precipitated

B1: Myc-AIPL1 (aryl hydrocarbon receptor interacting protein-like 1), wild type (protein, UniProt Q9NZN9 1-384)
chain: T1 sequence
With B1 the binding (HA-FAT10) was “binds” and the binding [1] was “binds”.

B2: Myc-AIPL1 C239R (protein, UniProt Q9NZN9 1-384)
chain: T1 sequence with C239R
With B2 the binding (HA-FAT10) was “binds”.

B3: His6-UBA6 (enzyme, UniProt A0AVT1 1-1052)
chain: MEGSEPVAAHQGEEASCSSWGTGSTNKNLPIMSTASVEIDDALYSRQRYVLGDTAMQKMAKSHVFLSGMGGLGLEIAKNLVLAGIKAVTIHDTEKCQAWDLGTNFFLSEDDVVNKRNRAEAVLKHIAELNPYVHVTSSSVPFNETTDLSFLDKYQCVVLTEMKLPLQKKINDFCRSQCPPIKFISADVHGIWSRLFCDFGDEFEVLDTTGEEPKEIFISNITQANPGIVTCLENHPHKLETGQFLTFREINGMTGLNGSIQQITVISPFSFSIGDTTELEPYLHGGIAVQVKTPKTVFFESLERQLKHPKCLIVDFSNPEAPLEIHTAMLALDQFQEKYSRKPNVGCQQDSEELLKLATSISETLEEKPDVNADIVHWLSWTAQGFLSPLAAAVGGVASQEVLKAVTGKFSPLCQWLYLEAADIVESLGKPECEEFLPRGDRYDALRACIGDTLCQKLQNLNIFLVGCGAIGCEMLKNFALLGVGTSKEKGMITVTDPDLIEKSNLNRQFLFRPHHIQKPKSYTAADATLKINSQIKIDAHLNKVCPTTETIYNDEFYTKQDVIITALDNVEARRYVDSRCLANLRPLLDSGTMGTKGHTEVIVPHLTESYNSHRDPPEEEIPFCTLKSFPAAIEHTIQWARDKFESSFSHKPSLFNKFWQTYSSAEEVLQKIQSGHSLEGCFQVIKLLSRRPRNWSQCVELARLKFEKYFNHKALQLLHCFPLDIRLKDGSLFWQSPKRPPSPIKFDLNEPLHLSFLQNAAKLYATVYCIPFAEEDLSADALLNILSEVKIQEFKPSNKVVQTDETARKPDHVPISSEDERNAIFQLEKAILSNEATKSDLQMAVLSFEKDDDHNGHIDFITAASNLRAKMYSIEPADRFKTKRIAGKIIPAIATTTATVSGLVALEMIKVTGGYPFEAYKNCFLNLAIPIVVFTETTEVRKTKIRNGISFTIWDRWTVHGKEDFTLLDFINAVKEKYGIEPTMVVQGVKMLYVPVMPGHAKRLKLTMHKLVKPTTEKKYVDLTVSFAPDIDGDEDLPGPPVRYYFSHDTD
For B3, the binding [2] was “binds” and the binding [3] was “no binding (condition: with FAT10 co-expressed)”.
